{"source": "PubChem BioAssay AID504834", "about": "(National Center for Advancing Translational Sciences (NCATS), 2011)", "note": "Among all 320,000 compounds or so, about 22,000 (6.9%) were called active. The shares of active, inactive and inconclusive entries below differ from those in the screen. Calls come from the whole dose curve; as a rule, active = well fitted inhibition curve with a large enough effect; inconclusive = small, poorly fitted or top-dose-only effect, or another doubt; inactive = no such curve, though single readings can be large or run the other way. Where the call is inconclusive, the potency comes from a doubtful curve fit. % is set by controls: 0 for no effect and ±100 for the full control effect; potency is the fitted concentration of half-maximal effect."}
{"experiment": "Primary qHTS for delayed death inhibitors of the malarial parasite plastid, 96 hour incubation", "settings": "P. falciparum luciferase reporter growth; series mostly up to 28.7 µM; activity change, negative = inhibition: at the top concentration", "in_short": "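Two-generation exposure (96 h) targets delayed-death phenotype. Reporter parasites carrying integrated firefly luciferase, in red cells at 2% hematocrit and 0.05% parasitemia final, kept at 37 C, 5% CO2; luminescence loss indicates inhibition.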"}
{"smiles": "CN(Cc1ccccc1)C(=S)NC(=O)c1ccccc1", "activity change, negative = inhibition": "inactive: -14.1%"}
{"smiles": "O=c1cccccc1NN=C1CCCCC1", "activity change, negative = inhibition": "inactive: 110%"}
{"smiles": "COc1ccccc1CNC(=O)CC(C)c1ccccc1", "note": "(stereo not drawn)", "Potency": "inconclusive: 9.28 µM [inhibitor, single point]"}
{"smiles": "CCC(=O)Nc1ccc(C(=O)c2ccccc2)cc1", "activity change, negative = inhibition": "inactive: 5.39%"}
{"smiles": "CCOc1cc(C(=O)Nc2ncn[nH]2)cc(OCC)c1OCC", "Potency": "inconclusive: 18.5 µM [inhibitor, single point]"}
{"smiles": "CCOc1ccc2nc(SCC(=O)c3ccc(C)s3)sc2c1", "activity change, negative = inhibition": "inactive: 6.02%"}
{"smiles": "Cc1cc(C)cc(NC(=S)N2CCC(NC(=O)c3ccc(F)cc3)CC2)c1", "Potency": "inconclusive: 18.5 µM [inhibitor, single point]"}
{"smiles": "O=C(CN1C(=O)NC2(CCCC2)C1=O)OCc1c(F)cccc1Cl", "activity change, negative = inhibition": "inactive: 34.2%"}
{"smiles": "CCCCCCn1c2c(c(=N)c3c1CCC3)CCC2", "activity change, negative = inhibition": "inactive: 20.9%"}
{"smiles": "Cc1ccc(C2=NOC3(CC(=O)N(c4ccccc4)C3=O)C2)cc1", "note": "(stereo not drawn)", "activity change, negative = inhibition": "inactive: 29.8%"}
{"smiles": "COc1ccc(-c2cccc(C3CC=CC4C3C(=O)N(Cc3ccccc3)C4c3ccc(OC)c(Cl)c3)c2)cc1", "note": "(stereo not drawn)", "Potency": "active: 9.28 µM"}
{"smiles": "CC(C)(C)Cc1nc(-c2ccc(Cl)cc2)no1", "activity change, negative = inhibition": "inactive: 36.9%"}
{"smiles": "CN(C1CCCCC1)S(=O)(=O)c1cccc2nsnc12", "Potency": "inconclusive: 20.8 µM [inhibitor, partial curve, poor fit]"}
{"smiles": "COC(=O)N/N=C/c1c(C)c(C(=O)c2ccc(F)cc2)n2ccccc12", "Potency": "inconclusive: 11.7 µM [inhibitor, partial curve, poor fit]"}
{"smiles": "CC(=O)c1ccc(S(=O)(=O)N(C)CC(=O)Nc2ccc(C)cc2)cc1", "Potency": "inconclusive: 18.5 µM [inhibitor, single point]"}
{"smiles": "Cc1c(C(=O)O)oc2ccc(S(=O)(=O)NC3CCCCCCC3)cc12", "Potency": "inconclusive: 13.1 µM [inhibitor, partial curve, poor fit]"}
{"smiles": "CCOC(=O)c1ccc(NC(=O)c2cc3c(C)nn(-c4ccccc4Cl)c3s2)s1", "activity change, negative = inhibition": "inactive: 16.2%"}
{"smiles": "COc1ccc(/C=C(\\NC(=O)c2ccc(OC)cc2)C(=O)Nc2cccc(C(=O)O)c2)cc1", "Potency": "inconclusive: 20.8 µM [inhibitor, single point]"}
{"smiles": "CC(=O)Nc1ccc(-n2nnnc2SCC(=O)Nc2cccc(NC(=O)c3ccco3)c2)cc1", "Potency": "inconclusive: 9.28 µM [inhibitor, partial curve, poor fit]"}
{"smiles": "COC(=O)N(NC(=O)C(O)(CCC(C)C)CCC(C)C)c1ccccc1", "Potency": "inconclusive: 0.0657 µM [inhibitor, full curve]"}
{"smiles": "CC(C)(C)c1ccc(C(=O)N2CCN(CCNC(=O)C(=O)NCc3ccccc3)CC2)cc1", "Potency": "inconclusive: 16.5 µM [inhibitor, partial curve, poor fit]"}
{"smiles": "COC(=O)c1ccccc1NC(=S)NC(=O)COc1ccc(C(C)C)cc1", "Potency": "inconclusive: 14.7 µM [inhibitor, single point]"}
{"smiles": "O=C1C=C(c2ccc(Oc3ccccc3)cc2)C[C@@H](c2ccc(F)cc2)C1", "activity change, negative = inhibition": "inactive: -15.6%"}
{"smiles": "Cn1cc(C(=O)N/N=C/C2=C(N3CCOCC3)C(=C\\c3ccccc3)/CC2)ccc1=O", "Potency": "inconclusive: 18.5 µM [inhibitor, single point]"}
{"smiles": "O=C(NNc1cccc(Cl)n1)Nc1ccccc1", "activity change, negative = inhibition": "inactive: 107%"}
{"smiles": "CCS(=O)(=O)c1nc(S(=O)(=O)c2ccc(C)cc2)c(N2CCC(O)CC2)s1", "Potency": "inconclusive: 11.7 µM [inhibitor, single point]"}
{"smiles": "CCN1CCN(c2ccc(S(=O)(=O)N3CCCCC3)cc2NC(=O)Cc2c(Cl)cccc2Cl)CC1", "Potency": "inconclusive: 10.4 µM [inhibitor, single point]"}
{"smiles": "CC(C)C(=O)NCc1cc(-c2ccccc2)no1", "Potency": "active: 5.22 µM"}
{"smiles": "COc1ccc(C2SCC(C(=O)O)N2C(C)=O)cc1OC", "note": "(stereo not drawn)", "Potency": "inconclusive: 16.5 µM [inhibitor, single point]"}
{"smiles": "O=C1C2CC=C(Cl)CC2C(=O)N1CCC[n+]1cccc2ccccc21", "note": "(stereo not drawn)", "Potency": "inconclusive: 11.7 µM [inhibitor, single point]"}
{"smiles": "Cn1ncc(C#N)c1NC(=O)C1CC(c2c(F)cccc2Cl)=NO1", "note": "(stereo not drawn)", "Potency": "inconclusive: 18.5 µM [inhibitor, single point]"}
{"smiles": "Cc1cc(OCCOCCNC(C)C)cc(C)c1Cl", "activity change, negative = inhibition": "inactive: 4.58%"}
{"smiles": "O=C(NCc1cn2ccsc2n1)Nc1ccc(Cl)cc1", "Potency": "inconclusive: 4.15 µM [inhibitor, partial curve, poor fit]"}
{"smiles": "CCN(CC)C(=O)C1=C(C)NC(=S)NC1c1cccs1", "note": "(stereo not drawn)", "Potency": "inconclusive: 2.08 µM [inhibitor, full curve, poor fit]"}
{"smiles": "Cc1cccc(N2CCN(S(=O)(=O)c3c(C)[nH]c(C)c3C(=O)N3CCCCC3)CC2)c1C", "Potency": "inconclusive: 11.7 µM [inhibitor, single point]"}
{"smiles": "CCOC(=O)C1=C(C)NC(C)=C(C(=O)OCC)C1C(=O)OCC(=O)NC1(C#N)CCCCC1", "Potency": "inconclusive: 9.28 µM [inhibitor, single point]"}
{"smiles": "CCSc1nnc(NC(=O)C(Cc2ccccc2)n2cccc2)s1", "note": "(stereo not drawn)", "Potency": "inconclusive: 6.57 µM [inhibitor, partial curve, poor fit]"}
{"smiles": "CN(C)c1cccc(C(=O)NCC(c2ccco2)N(C)C)c1", "note": "(stereo not drawn)", "activity change, negative = inhibition": "inactive: -13.5%"}
{"smiles": "CCN(CC)C(=O)c1ccc(NC(=O)CN2CCc3cc(OC)c(OC)cc3C2)cc1", "Potency": "inconclusive: 5.22 µM [inhibitor, partial curve]"}
{"smiles": "CCOC(=O)N/N=C/c1cn(Cc2ccc(F)cc2)c2ccccc12", "Potency": "inconclusive: 14.7 µM [inhibitor, partial curve]"}
{"smiles": "C/C(CCS(=O)(=O)c1ccccc1)=N/O", "activity change, negative = inhibition": "inactive: 28.7%"}
{"smiles": "COc1ccc(N2CCN(C(c3cc4ccc(C)cc4[nH]c3=O)c3nnnn3C3CCCC3)CC2)cc1", "note": "(stereo not drawn)", "Potency": "inconclusive: 16.5 µM [inhibitor, single point]"}
{"smiles": "COc1ccc2c(c1)[C@H]1[C@H](CO2)[C@H](c2ccccc2)[C@]2(C)C(=O)Nc3cc(F)c(F)cc3C(=O)N12", "Potency": "inconclusive: 18.5 µM [inhibitor, single point]"}
{"smiles": "O=C(Nc1ccc2c(c1)OCCO2)NC1CCCCC1", "Potency": "inconclusive: 5.86 µM [inhibitor, partial curve, poor fit]"}
{"smiles": "CCOC(=O)c1sc(-c2ccccc2)cc1NC(=O)CSc1nnnn1C", "Potency": "inconclusive: 8.28 µM [inhibitor, partial curve]"}
{"smiles": "Nc1nnc(CCCCc2cccs2)o1", "activity change, negative = inhibition": "inactive: 8.75%"}
{"smiles": "Cc1cc(CNC(=O)c2ccc(C)c([N+](=O)[O-])c2)c2ccccc2n1", "Potency": "inconclusive: 16.5 µM [inhibitor, single point]"}
{"smiles": "CC(C)(C)NC(=O)COc1ccc(CNc2ccc3[nH]c(=O)[nH]c3c2)cc1", "Potency": "inconclusive: 7.38 µM [inhibitor, partial curve, poor fit]"}
{"smiles": "Cc1cc2oc(=O)cc(CN3CCN(S(=O)(=O)/C=C/c4ccccc4)CC3)c2cc1C", "Potency": "inconclusive: 8.28 µM [inhibitor, partial curve]"}
{"smiles": "Cc1ccc(C(=O)N2CCCC2)cc1S(=O)(=O)Nc1cccc(C)c1C", "Potency": "inconclusive: 0.0041 µM [inhibitor, full curve, poor fit]"}
{"smiles": "COc1cc(SC)ccc1C(=O)NNC(=O)c1cc(C)oc1C", "activity change, negative = inhibition": "inactive: 183%"}
{"smiles": "Nc1nonc1C(=O)N/N=C/c1ccncc1", "Potency": "inconclusive: 18.5 µM [inhibitor, single point]"}
{"smiles": "O=C(Nc1ccccc1)C1=C[C@@H](c2coc3ccccc3c2=O)C[C@@H](OCc2ccc(CO)cc2)O1", "Potency": "inconclusive: 18.5 µM [inhibitor, single point]"}
{"smiles": "COc1ccc(NC(=O)c2ccc(=O)[nH]c2)cc1S(=O)(=O)N1CCCCC1", "activity change, negative = inhibition": "inactive: -7.74%"}
{"smiles": "CCOc1ccccc1OCC(=O)Nc1ccc(S(=O)(=O)N(C)C)cc1", "Potency": "inconclusive: 18.5 µM [inhibitor, single point]"}
{"smiles": "O=C(CCNc1ccc(Cl)cc1)c1cccs1", "Potency": "inconclusive: 5.86 µM [inhibitor, partial curve, poor fit]"}
{"smiles": "CCOC(=O)N/N=C\\c1cccc(OC)c1OC/C=C/c1ccccc1", "Potency": "inconclusive: 18.5 µM [inhibitor, single point]"}
{"smiles": "N/C(=N\\OC(=O)C12CC3CC(CC(C3)C1)C2)c1cccnc1", "Potency": "inconclusive: 0.0657 µM [inhibitor, full curve, poor fit]"}
{"smiles": "Cc1nn(C)c(C)c1S(=O)(=O)N(CC(=O)NC1CCCCCC1)c1ccc(C(C)C)cc1", "Potency": "inconclusive: 10.4 µM [inhibitor, single point]"}
{"smiles": "Cc1ccnc(NS(=O)(=O)c2ccc(NC(=O)CCOc3ccccc3)cc2)n1", "activity change, negative = inhibition": "inactive: 8.48%"}
{"smiles": "CCOc1c(Nc2ccccc2O)c(=O)c1=O", "activity change, negative = inhibition": "inactive: 4.29%"}
{"smiles": "O=C(O)CCC(=O)Nc1cccc(-c2nnc(-c3ccccc3)o2)c1", "Potency": "inconclusive: 9.28 µM [inhibitor, single point]"}
{"smiles": "CCOc1ccc2[nH]cc(C(=O)NCCc3ccccc3)c(=O)c2c1", "Potency": "inconclusive: 18.5 µM [inhibitor, single point]"}
{"smiles": "COc1ccc(C2C(C(=O)c3ccccc3)N3c4ccccc4C=CC3C2[N+](=O)[O-])cc1", "note": "(stereo not drawn)", "Potency": "active: 9.28 µM"}
{"smiles": "COc1ccc(OC)c(S(=O)(=O)N2CCCC(C(=O)N3CCC(C(N)=O)CC3)C2)c1", "note": "(stereo not drawn)", "Potency": "inconclusive: 0.233 µM [inhibitor, full curve]"}
{"smiles": "COc1ccc(N2CCN(CCNC(=O)Nc3ccc(C)c(Cl)c3)CC2)cc1", "Potency": "inconclusive: 2.08 µM [inhibitor, full curve]"}
{"smiles": "CSc1nn2cc(CCN3CCOCC3)c(-c3ccc(F)cc3)nc2c1C#N", "Potency": "inconclusive: 4.65 µM [inhibitor, partial curve]"}
{"smiles": "CC(=O)c1sc(NC(=O)CCN2C(=O)C3CC=CCC3C2=O)nc1-c1ccccc1", "note": "(stereo not drawn)", "Potency": "inconclusive: 18.5 µM [inhibitor, single point]"}
